In the test the target is SFB-tagged IP6K1 (full length) (human) (UniProt Q92551). Description: affinity purification with mass spectrometry; SFB-tagged bait expressed in HEK293T; lysis in NETN buffer (20 mM Tris-HCl pH 8.0, 100 mM NaCl, 1 mM EDTA, 0.5% Nonidet P-40) at 4°C; tandem purification on streptavidin-sepharose (biotin elution) and S-protein agarose; in-gel trypsin digest, LTQ Orbitrap; replicate sets; SFB-GFP as control.

By UniProt entry, the sequences of proteins in these tests, tags left out.
UniProt Q92551: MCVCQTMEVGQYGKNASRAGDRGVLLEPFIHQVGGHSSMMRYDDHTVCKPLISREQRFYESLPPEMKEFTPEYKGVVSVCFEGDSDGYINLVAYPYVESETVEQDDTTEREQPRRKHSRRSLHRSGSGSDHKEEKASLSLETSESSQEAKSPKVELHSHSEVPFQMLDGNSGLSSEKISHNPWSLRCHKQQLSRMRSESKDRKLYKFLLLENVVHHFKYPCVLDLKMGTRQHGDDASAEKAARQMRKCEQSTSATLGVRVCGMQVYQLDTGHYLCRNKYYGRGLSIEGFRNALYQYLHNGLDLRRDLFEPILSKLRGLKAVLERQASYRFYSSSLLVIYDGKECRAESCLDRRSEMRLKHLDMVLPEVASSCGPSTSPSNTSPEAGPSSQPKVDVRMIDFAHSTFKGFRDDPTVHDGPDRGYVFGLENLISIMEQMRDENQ

These are yes or no findings as the source states them, for the method shown. Binding seen in cells or lysates may run through a third protein. Here binding means that the protein was enriched with, or labelled near, the bait; the list need not be complete.

B1: endogenous TCOF (protein, UniProt Q13428 1-1488)
chain: MAEARKRRELLPLIYHHLLRAGYVRAAREVKEQSGQKCFLAQPVTLLDIYTHWQQTSELGRKRKAEEDAALQAKKTRVSDPISTSESSEEEEEAEAETAKATPRLASTNSSVLGADLPSSMKEKAKAETEKAGKTGNSMPHPATGKTVANLLSGKSPRKSAEPSANTTLVSETEEEGSVPAFGAAAKPGMVSAGQADSSSEDTSSSSDETDVEGKPSVKPAQVKASSVSTKESPARKAAPAPGKVGDVTPQVKGGALPPAKRAKKPEEESESSEEGSESEEEAPAGTRSQVKASEKILQVRAASAPAKGTPGKGATPAPPGKAGAVASQTKAGKPEEDSESSSEESSDSEEETPAAKALLQAKASGKTSQVGAASAPAKESPRKGAAPAPPGKTGPAVAKAQAGKREEDSQSSSEESDSEEEAPAQAKPSGKAPQVRAASAPAKESPRKGAAPAPPRKTGPAAAQVQVGKQEEDSRSSSEESDSDREALAAMNAAQVKPLGKSPQVKPASTMGMGPLGKGAGPVPPGKVGPATPSAQVGKWEEDSESSSEESSDSSDGEVPTAVAPAQEKSLGNILQAKPTSSPAKGPPQKAGPVAVQVKAEKPMDNSESSEESSDSADSEEAPAAMTAAQAKPALKIPQTKACPKKTNTTASAKVAPVRVGTQAPRKAGTATSPAGSSPAVAGGTQRPAEDSSSSEESDSEEEKTGLAVTVGQAKSVGKGLQVKAASVPVKGSLGQGTAPVLPGKTGPTVTQVKAEKQEDSESSEEESDSEEAAASPAQVKTSVKKTQAKANPAAARAPSAKGTISAPGKVVTAAAQAKQRSPSKVKPPVRNPQNSTVLARGPASVPSVGKAVATAAQAQTGPEEDSGSSEEESDSEEEAETLAQVKPSGKTHQIRAALAPAKESPRKGAAPTPPGKTGPSAAQAGKQDDSGSSSEESDSDGEAPAAVTSAQVIKPPLIFVDPNRSPAGPAATPAQAQAASTPRKARASESTARSSSSESEDEDVIPATQCLTPGIRTNVVTMPTAHPRIAPKASMAGASSSKESSRISDGKKQEGPATQVSKKNPASLPLTQAALKVLAQKASEAQPPVARTQPSSGVDSAVGTLPATSPQSTSVQAKGTNKLRKPKLPEVQQATKAPESSDDSEDSSDSSSGSEEDGEGPQGAKSAHTLGPTPSRTETLVEETAAESSEDDVVAPSQSLLSGYMTPGLTPANSQASKATPKLDSSPSVSSTLAAKDDPDGKQEAKPQQAAGMLSPKTGGKEAASGTTPQKSRKPKKGAGNPQASTLALQSNITQCLLGQPWPLNEAQVQASVVKVLTELLEQERKKVVDTTKESSRKGWESRKRKLSGDQPAARTPRSKKKKKLGAGEGGEASVSPEKTSTTSKGKAKRDKASGDVKEKKGKGSLGSQGAKDEPEEELQKGMGTVEGGDQSNPKSKKEKKKSDKRKKDKEKKEKKKKAKKASTKDSESPSQKKKKKKKKTAEQTV
Take B1: the binding result is on record as “binds”.

B2: endogenous AP3B1, the β subunit of the AP3 adaptor protein complex (protein, UniProt O00203 1-1094)
chain: MSSNSFPYNEQSGGGEATELGQEATSTISPSGAFGLFSSDLKKNEDLKQMLESNKDSAKLDAMKRIVGMIAKGKNASELFPAVVKNVASKNIEIKKLVYVYLVRYAEEQQDLALLSISTFQRALKDPNQLIRASALRVLSSIRVPIIVPIMMLAIKEASADLSPYVRKNAAHAIQKLYSLDPEQKEMLIEVIEKLLKDKSTLVAGSVVMAFEEVCPDRIDLIHKNYRKLCNLLVDVEEWGQVVIIHMLTRYARTQFVSPWKEGDELEDNGKNFYESDDDQKEKTDKKKKPYTMDPDHRLLIRNTKPLLQSRNAAVVMAVAQLYWHISPKSEAGIISKSLVRLLRSNREVQYIVLQNIATMSIQRKGMFEPYLKSFYVRSTDPTMIKTLKLEILTNLANEANISTLLREFQTYVKSQDKQFAAATIQTIGRCATNILEVTDTCLNGLVCLLSNRDEIVVAESVVVIKKLLQMQPAQHGEIIKHMAKLLDSITVPVARASILWLIGENCERVPKIAPDVLRKMAKSFTSEDDLVKLQILNLGAKLYLTNSKQTKLLTQYILNLGKYDQNYDIRDRTRFIRQLIVPNVKSGALSKYAKKIFLAQKPAPLLESPFKDRDHFQLGTLSHTLNIKATGYLELSNWPEVAPDPSVRNVEVIELAKEWTPAGKAKQENSAKKFYSESEEEEDSSDSSSDSESESGSESGEQGESGEEGDSNEDSSEDSSSEQDSESGRESGLENKRTAKRNSKAKGKSDSEDGEKENEKSKTSDSSNDESSSIEDSSSDSESESEPESESESRRVTKEKEKKTKQDRTPLTKDVSLLDLDDFNPVSTPVALPTPALSPSLMADLEGLHLSTSSSVISVSTPAFVPTKTHVLLHRMSGKGLAAHYFFPRQPCIFGDKMVSIQITLNNTTDRKIENIHIGEKKLPIGMKMHVFNPIDSLEPEGSITVSMGIDFCDSTQTASFQLCTKDDCFNVNIQPPVGELLLPVAMSEKDFKKEQGVLTGMNETSAVIIAAPQNFTPSVIFQKVVNVANVGAVPSGQDNIHRFAAKTVHSGSLMLVTVELKEGSTAQLIINTEKTVIGSVLLRELKPVLSQG
B2: the binding result was “binds”.
